Measured values taken from PubChem BioAssay AID1347076 (National Center for Advancing Translational Sciences (NCATS), 2019).
In all, about 400,000 compounds went through this assay and about 13,000 (3.2%) were called active. The inconclusive results got no clear call from the source; some entries with a clear call stand among them for comparison. Calls come from the whole dose curve; as a rule, active = well fitted cell-killing curve with a large enough effect; inconclusive = small, poorly fitted or top-dose-only effect, or effect the other way; inactive = flat fitted curve, though single readings scatter. Potencies beside an inconclusive call are fits to weak or partial responses and may not hold up.

assay: qHTS assay for MDR1-selective chemotherapeutics: Primary screen using the drug-selected MDR subline cells KB-V1; conditions: KB-V1 MDR cells viability, CellTiter-Glo, 72 h; activity change, negative = cytotoxicity: at 46.1 µM (top of the series); note: nearly all actives have a fitted effect of over 60% in size
Method in brief: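 In this primary screen, KB-V1 cells overexpressing P-gp are incubated with library compounds (lowest to highest concentration) for 72 h at 37 degrees C before a luminescent ATP viability read.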
% is set by controls: 0 for no effect and ±100 for the full control effect; potency is the fitted concentration of half-maximal effect.

Structure (SMILES)	activity change, negative = cytotoxicity	Potency
Cc1cc(O)c(C(c2ccccc2)N2CCC(C)CC2)c(=O)n1Cc1ccco1 (stereo not given)	inactive: 0%	
COc1ccc(N(CC(=O)N2CCOCC2)S(C)(=O)=O)cc1OC		inconclusive: 20.6 µM [rising, single point]
Cc1ccc(C(=O)N/C(=C/c2cccc([N+](=O)[O-])c2)C(=O)NCC2CCCO2)cc1 (stereo not given)		inconclusive: 32.6 µM [cytotoxic, single point]
CN(C)c1ccc(CC(=O)N2CCCC(c3cc(C(=O)Nc4ccccc4)no3)C2)cc1 (stereo not given)	inconclusive: -18.2%	
Nc1c2c(nc3c1CCCC3)CCCC2 (tested in a mixture with another compound)	inactive: -10.5%	
Cc1cccc(NC(=O)Cc2nnc(NC(=O)Nc3ccccc3F)s2)c1		inconclusive: 29.1 µM [rising, single point]
Cc1ccc([N+](=O)[O-])cc1-c1ccc(/C=N\n2nnnc2N)o1		inconclusive: 1.16 µM [cytotoxic, full curve]
COc1ccc(C2C(C(C)=O)=C(C)N=c3s/c(=C\c4ccco4)c(=O)n32)c(OC)c1 (stereo not given)		inconclusive: 5.01 µM [cytotoxic, partial curve]
CC(C)c1ccc(N(C(=O)c2ccco2)C(C(=O)NC2CCCC2)c2ccncc2)cc1 (stereo not given)		inconclusive: 29.1 µM [cytotoxic, single point]
CCOC(=O)c1cc(CC)sc1NC(=O)c1cc(OC)c(OC)c(OC)c1		inconclusive: 12.6 µM [cytotoxic, single point]
CN(C)c1ccc(C(CNC(=O)c2ccc(C(C)(C)C)cc2)N2CCCC2)cc1 (stereo not given)	inactive: -10.3%	
COc1ccc(-c2noc(-c3cccs3)n2)cc1OC		inconclusive: 10.3 µM [cytotoxic, partial curve]
Cc1cn2c(=O)cc(COc3ccc(NC(=O)c4ccc(C(C)(C)C)cc4)cc3)nc2s1	inactive: -8.09%	
CC(=O)Nc1ccc2c(c1)Cc1c-2cc(Br)c(N)c1Br		inconclusive: 29.1 µM [rising, single point]
CCC1=C(c2ccc(C)cc2)S(=O)(=O)N=C1N1CCC(C(=O)Nc2ccccc2C(=O)OC)CC1		inconclusive: 23.1 µM [cytotoxic, single point]
Cc1ccc(C(=O)C(C)N2C(=O)NC(C)(c3ccccc3)C2=O)cc1 (stereo not given)		inconclusive: 23.1 µM [cytotoxic, partial curve, poor fit]
CCc1nc2ccc(C(=O)Nc3ccc(OC)c(OC)c3)cn2c1N(C)C(=O)c1cccc(OC)c1	inactive: 3.04%	
OC(c1ccc(F)cc1)c1nc(-c2cccc(F)c2)cs1 (stereo not given)	inactive: 3.12%	
CCOc1ccc(NC(=O)c2cc3cc4ccc(C)cc4nc3o2)cc1		inconclusive: 16.4 µM [rising, partial curve, poor fit]
Nc1nc(CCl)nc(N(c2ccccc2)c2ccccc2)n1		active: 16.4 µM
CC(C)(C)OC(=O)N1Cc2cc3ccccc3nc2C1		inconclusive: 29.1 µM [cytotoxic, single point]
O=C(CC1C(=O)NCCN1Cc1cccc(Oc2ccccc2)c1)NCCc1cnccn1 (stereo not given)	inactive: -6.16%	
C=Cc1ccc(CN2C(=O)N(c3ccc(C)c(C)c3)S(=O)(=O)c3ccccc32)cc1	inactive: -1.4%	
CN(CC(=O)Nc1ccc(Cl)c(Cl)c1)Cc1nnc(-c2ccc(F)cc2)o1		inconclusive: 20.6 µM [cytotoxic, single point]

Exported with each value named: 2 of the compounds above.
CCOC(=O)c1cc(CC)sc1NC(=O)c1cc(OC)c(OC)c(OC)c1
  Potency: inconclusive: 12.6 µM [cytotoxic, single point]
Cc1cn2c(=O)cc(COc3ccc(NC(=O)c4ccc(C(C)(C)C)cc4)cc3)nc2s1
  activity change, negative = cytotoxicity: inactive: -8.09%

Next results follow:

Structure (SMILES)	activity change, negative = cytotoxicity	Potency
CCOC(=O)C1CCN(Cc2ccc(F)c(Br)c2)CC1		inconclusive: 20.6 µM [cytotoxic, single point]
CCS(=O)(=O)c1ccc(N)cc1		inconclusive: 23.1 µM [rising, single point]
Brc1ccc(-c2csc3[n+]2CCCCC3)cc1		inconclusive: 16.4 µM [rising, partial curve]
Cn1nc(C(C)(C)C)c(NC(=O)c2ccc(F)cc2)c1C(C)(C)C		inconclusive: 18.4 µM [rising, partial curve, poor fit]
COc1ccccc1NC(=O)/C=C/c1ccc2c(c1)OCO2		inconclusive: 23.1 µM [cytotoxic, single point]
COc1cccc(-c2cc(=O)c3cc(NC(=O)c4ccccc4)ccc3[nH]2)c1	inactive: 11.8%	
COc1ccc(OC2CCN(S(=O)(=O)c3ccc(OC)c(OC)c3)CC2)cc1	inactive: -19.8%	
NC(Cc1ccc(C(F)(F)F)cc1)c1csc(Nc2cnccn2)n1 (stereo not given)	inactive: -2.43%	
CCS(=O)(=O)c1ncc(Cl)c(C(=O)Nc2ccc(S(=O)(=O)N(C)c3ccccc3)cc2)n1		inconclusive: 6.51 µM [cytotoxic, full curve, poor fit]
Cc1nn(-c2ccc(N3CCOCC3)nn2)c(C)c1CCC(=O)NCc1ccc(Cl)cc1	inactive: 5.72%	
CCOC(=O)CNC(=O)N1CCCC(CNS(=O)(=O)Cc2ccccc2)C1 (stereo not given)		inconclusive: 29.1 µM [rising, single point]
CCOC(=O)c1c(C)[nH]c(C(=O)CSc2nnc(-c3cccs3)n2Cc2ccccc2)c1C		active: 2.31 µM
O=C(NC(=S)N1CCCC1)c1ccccc1F	inactive: -6.99%	
C=CCOc1ccc2ccccc2c1CNc1ncn[nH]1		inconclusive: 16.4 µM [cytotoxic, single point]
N#CCCn1cc(C(=O)O)c(-c2ccc3ccccc3c2)n1		inconclusive: 20.6 µM [rising, single point]
Cc1cc(C)n2[nH]c(=O)c(N=Nc3cccc(Cl)c3)c2n1		inconclusive: 29.1 µM [cytotoxic, single point]
Cc1noc(C)c1CSCC(=O)N1CCN(c2ccc(F)cc2)CC1		active: 2.91 µM
Nc1ncnc2c1ncn2[C@@H]1O[C@H](CNCc2ccc(-c3cc(C(F)(F)F)ccc3Cl)o2)[C@@H](O)[C@H]1O	inactive: 0.0002%	
CN(CCN1CCc2ccccc2C1)Cc1nc(Cc2ccccc2F)no1		inconclusive: 23.1 µM [cytotoxic, single point]
Cc1ccc(C(=O)N(CCc2ccccc2)Cc2ccccc2)cc1S(=O)(=O)N1CCOCC1		inconclusive: 29.1 µM [cytotoxic, single point]
COc1ccc(C(CNC(=O)C(C)Oc2ccc(Br)cc2)N2CCCCC2)cc1 (stereo not given)		inconclusive: 29.1 µM [cytotoxic, single point]
O=C(COc1ccc(C(=O)c2ccccc2)cc1)NC1CCCCC1	inactive: -2.49%	
Cc1cc(OCCCC(=O)NCCc2ccccn2)ccc1Cl	inconclusive: 4.97%	
COc1ccc(OCc2cc(C(=O)N3CCSCC3)no2)c(Cl)c1		inconclusive: 20.6 µM [cytotoxic, single point]

Given bar-delimited: part of the list above
Structure (SMILES) | activity change, negative = cytotoxicity | Potency
NC(Cc1ccc(C(F)(F)F)cc1)c1csc(Nc2cnccn2)n1 (stereo not given) | inactive: -2.43% | 
Cc1cc(OCCCC(=O)NCCc2ccccn2)ccc1Cl | inconclusive: 4.97% | 

More records follow:

Structure (SMILES)	activity change, negative = cytotoxicity	Potency
CCc1cccc(NC(=O)C2CCN(S(=O)(=O)c3ccc(Br)s3)CC2)c1		inconclusive: 29.1 µM [cytotoxic, single point]
COc1ccc(CCNC(=O)C2CCCN(S(=O)(=O)c3ccc(OC)cc3)C2)cc1 (stereo not given)		inconclusive: 13 µM [cytotoxic, partial curve, poor fit]
CCOC(=O)c1cnc2c(Cl)c(Cl)ccc2c1N1CCN(C)CC1		inconclusive: 20.6 µM [cytotoxic, single point]
Cc1cc(/C=N/NC(=O)c2ccncc2)c(C)n1-c1ccccc1	inactive: -8.21%	
COc1cc(OC)c(NC(=O)C2=C(C)C(=O)OC23CCN(C(C)=O)CC3)cc1Cl	inactive: 5.09%	
Cc1ccc2c(CN3CCN(S(=O)(=O)c4ccc(Cl)cc4)CC3)cc(=O)oc2c1C		inconclusive: 4.61 µM [cytotoxic, full curve]
Cc1ccc(N(CC(=O)N/N=C/c2cccs2)S(C)(=O)=O)cc1		inconclusive: 18.4 µM [cytotoxic, single point]
O=S(=O)(c1cc(Cl)cc(Cl)c1)N1CCN(c2nc(-c3cccs3)nc3ccccc23)CC1	inactive: -6.43%	
Cc1ccc(-c2nnn(CC(=O)N(CC(=O)NC3CCCCC3)c3ccc(F)c(Cl)c3)n2)o1		inconclusive: 1.3 µM [cytotoxic, full curve, poor fit]
COc1ccc(Cn2c(C(=O)O)c(CNCc3ccco3)c3ccc(C)cc32)cc1	inactive: 4.66%	
Cc1nc(Nc2nc(CSc3ccc(Cl)cc3)cc(=O)[nH]2)nc2ccccc12	inactive: 0%	
Cc1ccc(N2C(=O)C(Cl)=C(NCc3ccccc3)C2=O)c(C)c1		inconclusive: 1.46 µM [rising, partial curve, poor fit]
C/C(=N\Nc1nc2ccccc2[nH]1)c1ccc2c(c1)OCCO2		inconclusive: 13 µM [cytotoxic, partial curve]
COc1ccc(N2CCOCC2)c(NC(=O)c2ccc(Br)o2)c1		inconclusive: 16.4 µM [cytotoxic, single point]
Cc1cc(C)c2cccc(NC(=S)NC(=O)c3ccccc3)c2n1		inconclusive: 8.2 µM [cytotoxic, partial curve, poor fit]
COc1ccc(-c2nnc(SCc3nnc(-c4cccs4)o3)n2CC2CCCO2)cc1 (stereo not given)		active: 4.61 µM
CC(Nc1nc(-c2cccnc2)nc2ccccc12)c1ccc(F)cc1 (stereo not given)		active: 18.4 µM
COCCN1C(=O)COc2ccccc2C1C(=O)NC(C)(C)C (stereo not given)		inconclusive: 29.1 µM [rising, single point]
COCCNC(=O)CSc1c(C)cnc2c1c(=O)n(C)c(=O)n2C		inconclusive: 20.6 µM [rising, single point]
COc1ccc(CN2CCN(CC(O)Cn3c4ccccc4c4ccccc43)CC2)cc1 (stereo not given)		active: 6.51 µM
Cc1nc(C(=O)N2CCCC(C(=O)c3cccc(OC(C)C)c3)C2)cs1 (stereo not given)		inconclusive: 11.6 µM [cytotoxic, partial curve, poor fit]
CC1CCc2c(sc3ncnc(NCc4cccnc4)c23)C1 (stereo not given)		inconclusive: 5.8 µM [cytotoxic, partial curve, poor fit]
